Assay results as given in article doi:10.1101/2024.12.09.627393.
These are yes or no findings as the source states them, for the method shown.

Sequences of proteins named here, by UniProt entry; tags and fusion partners are left off. A change or cut given only in a name is not applied to a line headed by its entry. Residues count along the entry.
UniProt Q9BXF3, residues 424-538: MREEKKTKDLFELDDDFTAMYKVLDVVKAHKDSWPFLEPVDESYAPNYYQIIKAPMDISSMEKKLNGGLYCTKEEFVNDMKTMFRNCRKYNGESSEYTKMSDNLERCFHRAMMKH

Molecular target: CECR2 bromodomain (CECR2-BRD), wild type, GST tag cleaved (human) (UniProt Q9BXF3)
Assay: AUC; sedimentation velocity, 35,000 rpm, 15 hours, 5°C; CECR2-BRD 5.2–25.1 μM alone (apo) and mixed with acetylated H3 and H4 peptides at 1:0.5 to 1:2; 150 mM NaCl, 20 mM NaPO4 pH 7.0, 1 mM TCEP; both purified

binding: no binding (tested: 5.2–25.1 μM)
Substance: CECR2 bromodomain (CECR2-BRD), wild type, GST tag cleaved (from UniProt Q9BXF3-1 424-538) (domain or fragment)
